Our source for the binding values is patent publication US20250179160A1.

Chains of the proteins cited; added tags and fusions are not shown. Lines headed by an entry give the natural chain unless they say otherwise; changes in a name come on top.
UniProt P00746: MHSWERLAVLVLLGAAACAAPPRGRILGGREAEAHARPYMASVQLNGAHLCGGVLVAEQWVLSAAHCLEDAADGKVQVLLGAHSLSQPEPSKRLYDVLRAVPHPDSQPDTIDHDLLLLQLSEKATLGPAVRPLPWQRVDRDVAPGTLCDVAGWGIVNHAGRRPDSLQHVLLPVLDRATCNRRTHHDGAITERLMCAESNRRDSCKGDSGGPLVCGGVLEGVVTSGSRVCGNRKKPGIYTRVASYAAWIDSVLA

No constants are given. Whether binding was seen depends on the method and setting. Some results given as binding are weak or reduced against the parent protein; the word gives no strength.

B1: 12H10, hybridoma supernatant (antibody, V domains shown)
VH: EVQLVESGGGLVQPKGSLKLSCAASGFSFNTYAMNWVRQAPGKGLEWVARIRSKSNNYATYYADSVKDRFTISRDDSESMLYLQMNNLKTEDTAMYYCVRHGYYWYFDVWGTGTTVTVSS
VL: DVLMTQTPLSLPVSLGDQASISCRSSQSIVHSDGNTYLEWYLQKPGQSPKLLIYRVSNRFSGVPDRFSGSGSGTDFTLKISRVEAEDLGVYYCFQGSHVPYTFGGGTKLEIKR
B2: 7H2, hybridoma supernatant (antibody, V domains shown)
VH: EVQVVESGGGLVRPKGSLKLSCAASGFSFNTYAMNWVRQAPGKGLEWVARIRSKSNNYATYYADSVKDRFTISRDDSESMLSLQMNNLKTEDTAMYYCVRQGYYWYFDVWGTGTTVTVSS
VL: DVLMTQTPLSLPVSLGDQASISCRSSQSIVHSNGNTYLEWYLQKPGQSPKLLIYTVSNRFSGVPDRFRGSGSGTDFTLKISRVEAEDLGVYYCFQGSHVPWTFGGGTKLEIKR
B3: 3C5, hybridoma supernatant (antibody, V domains shown)
VH: EVKLVESGGGLVQPGGSLKLSCATSGFTFSDYGMAWVRQAPGKGPEWVAFISNLAYSFYYVDIVMGRFTISRENAKNTLYLEMSSLRSEDTAMYYCARVGLYGNFFMDYWGQGTSVTVSS
VL: DIQMNQSPSSLSASLGDTITITCHASQNINVWLSWYQQKPGNIPELLIYKASNLHTGVPSRFSGNRSGTSFTLTISSLQPEDIGTYFCQQGQSYPLTFGAGTKLELRR
B4: 30H2, hybridoma supernatant (antibody, V domains shown)
VH: EVKLVESGGGLVQPGGSLKLSCATSGFTFSDYGMAWVRQAPGKGPEWVAFISNLAYSFYYVDIVMGRFTISRENAKNTLYLEMSSLRSEDTAMYYCARVGLYGNFFMDYWGQGTSVTVSS
VL: DIQMNQSPSSLSASLGDTITITCHASQNINVWLSWYQQKPGNIPELLIYKASNLHTGVPSRFSGNRSGTSFTLTISSLQPEDIGTYFCQQGQSYPLTFGAGTKLEIKR

For the assay, the target named is recombinant human Pro-Factor D, Strep tagged (human) (UniProt P00746). In words: ELISA with hybridoma supernatant; pro-Factor D-Strep captured by AF1824.
As for B1, the binding entry was “binds”.

Regarding B2, the binding result was “binds”.

Consider B3, for which the binding entry is recorded as “binds”.

For B4, the binding result is “binds”.
